For assay [1], the target named is T1, ID2-Myc-FLAG (Inhibitor of DNA binding 2, epitope-tagged) (UniProt Q02363).
T1 sequence: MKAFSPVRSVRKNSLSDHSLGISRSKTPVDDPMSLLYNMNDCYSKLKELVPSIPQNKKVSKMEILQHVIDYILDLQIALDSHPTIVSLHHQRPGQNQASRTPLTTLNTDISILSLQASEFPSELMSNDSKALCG
The assay can be described thus: co-IP; HEK293AD cells transfected with ID2-Myc-FLAG; IP with IgG or anti-FLAG antibodies; precipitates probed for GRP78 and Myc(ID2).

Sequences of proteins named here, by UniProt entry; tags and fusion partners are left off. Residues count along the entry.
UniProt P11021, residues 19-654: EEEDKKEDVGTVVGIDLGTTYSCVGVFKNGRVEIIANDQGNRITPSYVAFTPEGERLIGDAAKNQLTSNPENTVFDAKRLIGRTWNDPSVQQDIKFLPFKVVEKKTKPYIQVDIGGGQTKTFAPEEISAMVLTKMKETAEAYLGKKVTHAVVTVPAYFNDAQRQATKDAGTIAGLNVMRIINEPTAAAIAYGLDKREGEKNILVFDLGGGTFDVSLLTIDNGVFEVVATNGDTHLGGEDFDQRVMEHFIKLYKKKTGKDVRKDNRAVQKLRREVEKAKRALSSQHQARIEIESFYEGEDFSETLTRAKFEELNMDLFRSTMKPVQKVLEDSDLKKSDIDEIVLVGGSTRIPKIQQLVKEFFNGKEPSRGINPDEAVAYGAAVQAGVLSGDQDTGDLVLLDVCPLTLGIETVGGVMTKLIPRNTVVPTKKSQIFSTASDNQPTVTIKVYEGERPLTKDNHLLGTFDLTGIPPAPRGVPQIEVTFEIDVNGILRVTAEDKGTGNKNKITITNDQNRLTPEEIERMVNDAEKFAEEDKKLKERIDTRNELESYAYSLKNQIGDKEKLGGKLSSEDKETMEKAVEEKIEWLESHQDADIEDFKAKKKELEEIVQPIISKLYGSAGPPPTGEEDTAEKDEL

For assay [2], the target named is T1, ID2-Myc-FLAG (Inhibitor of DNA binding 2, epitope-tagged). In words: proximity ligation; HEK293AD cells transfected with GRP78(WT)-GFP or GRP78(NLS Mut)-GFP together with ID2-Myc-FLAG; antibodies against GFP and FLAG; confocal fluorescence; reveals interactions at distances <40 nm.

Among the data in paper PMC10400976 are binding values, retold here.

Results are given in words; binding and its absence hold for the method and conditions named. In cells and extracts the contact can be indirect. Some entries that bind do so weakly or less than the wild type. Where a sequence is shown, tags or fusion partners need not be part of it.

In the case of “78-kDa glucose-regulated protein (GRP78), endogenous (from UniProt P11021 19-654)”, the binding result in assay [1] is “binds”.

Consider “GRP78(WT)-GFP (from UniProt P11021 19-654)”, for which, in assay [2], the binding result is listed as “binds”.
